Assay results taken from the supplement of paper PMC12578635.
This is one part of the list. No stated cut-off is given here; in the data, active = 150% or more and inactive = the rest. Many values rest on one well or one pass, so single values are uncertain.

These compounds were tested on Staphylococcus aureus JE2-lux inside RAW 264.7 macrophages (assay: intracellular bacterial bioluminescence relative to DMSO vehicle; higher = higher intracellular bacterial metabolic activity). Settings: 10 µM; treatment time 4 h; gentamicin 50 µg/ml.

Intracellular bacterial bioluminescence, active:
COC(=O)C1=C(N)Oc2c(oc(CO)cc2=O)C1c1ccc2c(c1)OCO2 (stereo not given) 182%

Intracellular bacterial bioluminescence, inactive:
Cc1nn(C)c(C)c1NC(=O)CCn1c(-c2ccc(F)cc2)cc2cccnc21 85.9%
COc1cc(OC)c(NS(=O)(=O)c2cc(-c3cc(C(F)(F)F)on3)cs2)cc1Cl 107%
Cc1ccc2cc(CN(C(=O)Nc3ccccc3F)C3CCCC3)c3nnnn3c2c1 39.5%
CCn1c(C(=O)NCc2ccccn2)c(N2CCCC2=O)c2cc(F)ccc21 104%
CC[C@@H](Cn1nc(-c2cccs2)ccc1=O)NC(=O)c1cccs1 82.2%
O=C(NCCCC1CCOC1)c1cnn(-c2ccc(F)cc2)c1 (stereo not given) 85.4%
CCOC(=O)C(C)Oc1cccc2c(=O)n(CC(=O)N3CCCCC3)ccc12 (stereo not given) 75.1%
COc1ccc(C(=O)N2CCc3c(c(C(=O)NCc4ccc(F)cc4)nn3C)C2)cc1 75.7%
CC(=O)Nc1cccc(-c2nn3c(C)nnc3s2)c1 82.8%
Cc1cc(Cl)cc2sc(N(Cc3cccnc3)C(=O)C(C)C)nc12 13.2%
COc1cccc(NC(=O)c2ccc(S(=O)(=O)N3CCc4ccccc4C3)cc2)c1 100%
CC(=O)Nc1cccc(NC(=O)NC2CC(=O)N(c3ccc4c(c3)OCCO4)C2)c1 (stereo not given) 123%
CCc1cc(C)cc(OC(=O)CSc2nc(-c3ccc(OC)cc3)nc3cc(=O)[nH]n23)c1 125%
CCOC(=O)c1c(SCC(=O)Nc2ccc([N+](=O)[O-])cc2)nc(=O)[nH]c1C 105%
O=C(OCn1nnc2ccccc2c1=O)C(c1ccccc1)c1ccccc1 69.3%
COc1ccc(NC(=O)CSc2nc(C)c(C)c(=O)[nH]2)cc1OC 118%
O=C(CCCS(=O)(=O)c1ccccc1)Nc1nc2c(F)cc(F)cc2s1 104%
O=C(NCCC1CCCCN1S(=O)(=O)c1ccc(F)cc1)C(=O)NCc1ccc2c(c1)OCO2 (stereo not given) 35.5%
O=C(Cn1c(=O)n(Cc2ccco2)c(=O)c2oc3ccccc3c21)Nc1ccc(Cl)cc1 109%
Cc1ccc(NC(=O)c2cc(S(=O)(=O)N3CCCCC3)ccc2F)cc1C 89.5%
Cc1cc(N2CCc3ccccc32)nc(-n2cc([N+](=O)[O-])cn2)n1 92%
COc1ccc(C2CC(c3ccc(NS(C)(=O)=O)cc3)=NN2S(C)(=O)=O)cc1OC (stereo not given) 85.8%
O=C1Nc2ccc(S(=O)(=O)Oc3ccc4oc5ccccc5c4c3)c3cccc1c23 77%
O=C(CN1CCC(n2cnc3cc(F)ccc32)CC1)Nc1nccs1 94.1%
Cc1c[nH]c(=O)nc1SCc1ccc([N+](=O)[O-])cc1 49.2%
CCOC(=O)c1sc(NC(=O)/C=C/c2ccc([N+](=O)[O-])s2)cc1C 87.9%
O=C(CSc1ncnc2c1cnn2-c1cccc(Cl)c1)NCc1ccc2c(c1)OCO2 96.7%
CCOC(=O)c1cnn(-c2ccc(C(=O)Nc3ccc(C(F)(F)F)cc3)cn2)c1N 129%
COc1cccc2cc(C(=O)NC(C)=O)/c(=N/c3cccc4ccccc34)oc12 100%
Cc1ccc(C(C)C)c(OCCCN2C(=O)C(=O)c3cccc(C)c32)c1 81%
CCc1cc2c(N3CCCC(C(=O)Nc4ccc5c(c4)OCCO5)C3)ncnc2s1 (stereo not given) 92.1%
Cc1cccc(CNc2ncnc3c2c(C)c(C)n3-c2ccc(Cl)cc2)c1 91.4%
COc1ccc(Cl)cc1NC(=O)CN1C(=O)[C@@H]2CCCN2C(=O)c2ccccc21 89.6%
CCOc1ccc2ncc(S(=O)(=O)c3ccccc3)c(Nc3ccc(OC)c(OC)c3)c2c1 76.9%
O=C(Nc1nnc(SCc2cccnc2)s1)C1CC(=O)N(c2ccccc2)C1 (stereo not given) 69.6%
CC(=O)c1ccc(/N=c2\oc3ccccc3cc2C(N)=O)cc1 97.3%
CC1Cc2nc(SCC(=O)Nc3ccc4c(c3)OCO4)n(Cc3ccccc3)c(=O)c2S1 (stereo not given) 60.1%
CCCn1c(=S)[nH]c2cc(C(=O)NCc3ccccc3)ccc2c1=O 35.9%
Nc1cc(-c2ccccc2)nn1-c1nc(-c2cccc(O)c2)cs1 36.2%
Cc1cc(C)cc(NC(=O)C2CC3CCCN3C23C(=O)N(C)c2ccccc23)c1 (stereo not given) 87.7%
COCCCn1c(SCc2nc(-c3ccccc3)no2)nc2cc3c(cc2c1=O)OCO3 112%
C=CCNc1nc2c(c(=O)n(C)c(=O)n2C)n1CC(=C)C 126%
Oc1ncnc2c1c(-c1ccccc1)cn2-c1cccc(Cl)c1 94%
COc1ccc(C(=O)CSc2nc(C)cc(=O)[nH]2)cc1OC 92.5%

For convenience, part of the list above.
Intracellular bacterial bioluminescence, inactive:
O=C1Nc2ccc(S(=O)(=O)Oc3ccc4oc5ccccc5c4c3)c3cccc1c23 77%
O=C(CN1CCC(n2cnc3cc(F)ccc32)CC1)Nc1nccs1 94.1%
